# PubChem BioAssay AID1259286, Sanger Institute, 2017
# Test: 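Kinome knock-downs lethal on their own or synergistic with anchor drugs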 (primary screen)
# Cells: NCI-H630 human colorectal cancer cells
# Knock-down reagent: siRNA pool against human genes
# Treatment: anchor drugs BYL719 at 1 µM, cetuximab at 5 µg/ml or trametinib at 10 nM, or DMSO vehicle alone; exposure time not given
# Read-out: 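Viability relative to non-targeting pool wells, averaged over replicates, with robust z-score for knock-down alone and a synergy score for each anchor drug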
# Reading the numbers: viability z-score, knock-down alone: higher = more viable cells, weaker knock-down effect; viability vs control, knock-down alone: higher = more viable cells; synergy score with trametinib: higher = stronger synergistic killing with trametinib; synergy score with BYL719: higher = stronger synergistic killing with BYL719; synergy score with cetuximab: higher = stronger synergistic killing with cetuximab
# Hit rule: 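a gene is called essential when its knock-down-alone viability robust z-score is below -3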
# Meaning of the calls: active = essential when knocked down alone; inactive = not essential alone
# The deposit covers 794 reagents; shown is an unselected part. 17 of them (2.1%) were called active. 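Calls use knock-down alone only; synergy above 0.15 marked separately; viability seems capped at control level; exposure time not given.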 A number with no mark means an inactive call. Reagent sequences are not shown. Not given: the amount of reagent, the time to read-out.
target gene,"viability z-score, knock-down alone","viability vs control, knock-down alone (fraction of control)",synergy score with trametinib,synergy score with BYL719,synergy score with cetuximab
STK10,0.464,1,-0.0479,-0.0791,0.0546
NRBP2,-0.596,0.96,-0.0644,-0.00373,0.0148
GRK3,0.464,1,-0.0479,-0.0511,-0.0907
PKM,0.464,1,-0.0479,0.0259,0.0465
MAP3K15,0.464,1,-0.0479,-0.0336,0.0045
LRRK1,0.464,1,-0.0154,-0.0814,-0.0529
MAP3K2,0.464,1,-0.0479,-0.0814,0.0472
MAP3K12,0.464,1,-0.0479,-0.0524,0.0431
N4BP2,0.464,1,-0.0191,-0.0405,-0.0424
MVK,0.464,1,-0.0479,-0.00608,0.04
DNMT3A,0.168,0.989,-0.0562,-0.0139,-0.0167
GUCY2D,-2.95,0.871,0.0176,0.0198,0.112
CAMK4,0.464,1,-0.0479,-0.0679,0
CDK20,-1.47,0.927,-0.0299,-0.0397,0.0442
PIP4K2B,0.464,1,0.0282,0.121,0.0967
EIF2AK2,0.438,0.999,-0.0488,-0.0504,-0.088
BRWD1,-0.351,0.969,0.00438,0.0198,0.0816
ACSL6,-2.63,0.883,-0.159,-0.1,-0.0687
ROR1,-0.404,0.967,-0.0695,-0.112,0.00733
EPHA7,0.0854,0.986,-0.0506,-0.0582,0.00753
CAMKK2,0.464,1,0.0597,-0.0814,-0.0914
ERBB2,0.464,1,0.0452,-0.0814,0.0911

Continued, starting with the last 5 of the part before.
target gene,"viability z-score, knock-down alone","viability vs control, knock-down alone (fraction of control)",synergy score with trametinib,synergy score with BYL719,synergy score with cetuximab
ACSL6,-2.63,0.883,-0.159,-0.1,-0.0687
ROR1,-0.404,0.967,-0.0695,-0.112,0.00733
EPHA7,0.0854,0.986,-0.0506,-0.0582,0.00753
CAMKK2,0.464,1,0.0597,-0.0814,-0.0914
ERBB2,0.464,1,0.0452,-0.0814,0.0911
GUCY2C,-0.00648,0.982,-0.0648,-0.0957,-0.0342
GALK2,0.33,0.995,-0.0304,0.0517,0.0294
IKBKB,0.464,1,0.0357,0.0194,0.0355
CIB2,-2.34,0.894,-0.0201,-0.00576,-0.188
CKS1B,0.464,1,-0.0479,0.0316,0.0246
NEK8,0.464,1,-0.0479,-0.0756,0.102
CMPK1,0.464,1,-0.0479,-0.0814,0.0729
MARK1,0.464,1,-0.0479,-0.0814,0.000139
MED12,-0.346,0.969,-0.0523,-0.053,0.0556
PRKAA2,0.0295,0.984,-0.0171,-0.0562,-0.0333
NEK1,0.464,1,-0.0479,0.0961,-0.0507
CALM2,0.464,1,-0.0237,0.0611,0.00958
EPHA8,0.464,1,-0.0479,0.0852,0.0657
MLKL,0.464,1,-0.0479,-0.0814,0.0532
HIPK1,0.464,1,-0.0431,-0.0814,-0.00132
RUNX1,0.464,1,-0.0479,0.0625,0.117
PIK3CD,0.464,1,-0.0479,-0.0814,-0.056
MTOR,0.464,1,0.000911,0.000194,0.0332
KMT2B,-1.49,0.926,-0.0851,-0.066,-0.0338
PRKCB,0.464,1,-0.0479,-0.0021,0.072
VRK1,-1.54,0.924,-0.0464,-0.0983,-0.0364
NUP62,-1.36,0.931,-0.114,-0.134,-0.0901
EIF2AK1,-0.101,0.979,-0.0682,-0.0226,-0.0444
XYLB,-1.35,0.931,-0.113,-0.0234,0.0163
CASK,0.464,1,-0.0465,0.0227,0.121
ACVRL1,0.464,1,-0.0479,0.0602,0.0326
DYRK2,-1.27,0.934,-0.0693,-0.0759,-0.0833
LIMK1,0.464,1,0.0318,-0.0814,-0.0273
